From PMC7044221

Protein sequences, listed by entry. Tags and fused reporters are not part of them. Lines headed by an entry give the natural chain unless they say otherwise; changes in a name come on top.
UniProt V9I0L4: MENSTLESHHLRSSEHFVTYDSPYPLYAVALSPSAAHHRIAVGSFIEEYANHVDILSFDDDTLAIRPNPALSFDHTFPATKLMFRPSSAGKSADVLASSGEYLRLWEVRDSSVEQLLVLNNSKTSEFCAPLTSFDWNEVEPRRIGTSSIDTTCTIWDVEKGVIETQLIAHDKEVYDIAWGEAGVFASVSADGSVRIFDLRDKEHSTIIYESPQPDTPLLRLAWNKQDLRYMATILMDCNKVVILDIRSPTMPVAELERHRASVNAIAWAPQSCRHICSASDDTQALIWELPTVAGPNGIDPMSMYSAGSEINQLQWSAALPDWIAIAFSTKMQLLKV
UniProt D0VYJ9: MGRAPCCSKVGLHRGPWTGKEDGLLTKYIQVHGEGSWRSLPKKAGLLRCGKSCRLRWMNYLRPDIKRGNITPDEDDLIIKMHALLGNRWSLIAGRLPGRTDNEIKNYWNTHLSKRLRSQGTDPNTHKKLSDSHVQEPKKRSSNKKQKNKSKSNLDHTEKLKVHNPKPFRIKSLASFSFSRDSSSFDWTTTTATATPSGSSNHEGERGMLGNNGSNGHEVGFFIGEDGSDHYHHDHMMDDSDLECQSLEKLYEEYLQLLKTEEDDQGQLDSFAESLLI
UniProt A0A140EFM7: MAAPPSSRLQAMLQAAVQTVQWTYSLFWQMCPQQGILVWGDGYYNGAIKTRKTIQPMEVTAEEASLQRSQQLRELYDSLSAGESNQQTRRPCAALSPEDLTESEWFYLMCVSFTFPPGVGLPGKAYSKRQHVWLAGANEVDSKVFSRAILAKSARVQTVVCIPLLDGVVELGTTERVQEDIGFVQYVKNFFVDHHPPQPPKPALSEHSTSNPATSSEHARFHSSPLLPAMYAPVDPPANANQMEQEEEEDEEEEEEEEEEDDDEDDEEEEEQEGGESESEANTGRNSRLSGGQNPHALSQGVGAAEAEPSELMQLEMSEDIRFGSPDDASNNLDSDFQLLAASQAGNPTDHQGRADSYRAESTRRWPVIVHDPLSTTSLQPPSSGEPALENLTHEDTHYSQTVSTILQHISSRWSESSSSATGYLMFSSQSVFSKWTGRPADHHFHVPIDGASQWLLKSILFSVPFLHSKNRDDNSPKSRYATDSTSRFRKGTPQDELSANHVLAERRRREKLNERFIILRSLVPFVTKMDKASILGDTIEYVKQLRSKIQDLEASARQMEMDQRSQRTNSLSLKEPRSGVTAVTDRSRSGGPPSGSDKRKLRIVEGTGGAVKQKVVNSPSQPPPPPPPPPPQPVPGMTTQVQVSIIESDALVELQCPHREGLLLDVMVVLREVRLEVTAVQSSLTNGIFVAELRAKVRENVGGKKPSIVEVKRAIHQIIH

Columns and labels:
Test in all cases: split reporter; BiFC with NtYFP and CtYFP fragments tested on both Nt and Ct sides of each factor; transient co-expression in N. benthamiana leaves (A. tumefaciens C58, OD600 0.4) with HC-Pro; confocal microscopy at 3 days post-infiltration
DkWDR1 (Diospyros kaki) = DkWDR1 (Diospyros kaki) (UniProt V9I0L4)
DkMYC1 (Diospyros kaki) = target: DkMYC1 (Diospyros kaki)
DkMYB2 (Diospyros kaki) = target: T1, DkMYB2 (Diospyros kaki) (UniProt D0VYJ7)
T1 sequence: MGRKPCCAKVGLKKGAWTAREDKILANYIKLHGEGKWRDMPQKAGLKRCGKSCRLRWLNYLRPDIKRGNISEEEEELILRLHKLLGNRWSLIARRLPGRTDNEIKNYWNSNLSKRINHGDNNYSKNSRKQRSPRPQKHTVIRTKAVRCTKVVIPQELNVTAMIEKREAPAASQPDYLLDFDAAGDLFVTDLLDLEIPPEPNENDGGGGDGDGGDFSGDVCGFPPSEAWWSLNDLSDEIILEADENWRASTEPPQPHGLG

Row | binding (DkWDR1 (Diospyros kaki)) | binding (DkMYC1 (Diospyros kaki)) | binding (DkMYB2 (Diospyros kaki)) | Substance
1 | binds | binds | – | DkMYB4 (from UniProt D0VYJ9 1-277)
2 | – | – | no binding | DkWDR1 (from UniProt V9I0L4)
3 | binds | – | binds | DkMYC1 (from UniProt A0A140EFM7)

No constants are given. Whether binding was seen depends on the method and setting. In cells and extracts the contact can be indirect. Binding calls can cover weak binding; strength is not graded here.
